# Laboratory results: publication PMC3830446
# Chains of the proteins cited; added tags and fusions are not shown. Residues count along the entry.
# UniProt P30086: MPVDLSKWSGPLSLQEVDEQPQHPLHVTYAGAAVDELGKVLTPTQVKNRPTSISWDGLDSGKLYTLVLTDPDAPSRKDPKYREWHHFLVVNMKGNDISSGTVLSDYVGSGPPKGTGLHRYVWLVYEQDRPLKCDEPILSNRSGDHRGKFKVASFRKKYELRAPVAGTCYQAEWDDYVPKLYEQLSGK
# UniProt P04264: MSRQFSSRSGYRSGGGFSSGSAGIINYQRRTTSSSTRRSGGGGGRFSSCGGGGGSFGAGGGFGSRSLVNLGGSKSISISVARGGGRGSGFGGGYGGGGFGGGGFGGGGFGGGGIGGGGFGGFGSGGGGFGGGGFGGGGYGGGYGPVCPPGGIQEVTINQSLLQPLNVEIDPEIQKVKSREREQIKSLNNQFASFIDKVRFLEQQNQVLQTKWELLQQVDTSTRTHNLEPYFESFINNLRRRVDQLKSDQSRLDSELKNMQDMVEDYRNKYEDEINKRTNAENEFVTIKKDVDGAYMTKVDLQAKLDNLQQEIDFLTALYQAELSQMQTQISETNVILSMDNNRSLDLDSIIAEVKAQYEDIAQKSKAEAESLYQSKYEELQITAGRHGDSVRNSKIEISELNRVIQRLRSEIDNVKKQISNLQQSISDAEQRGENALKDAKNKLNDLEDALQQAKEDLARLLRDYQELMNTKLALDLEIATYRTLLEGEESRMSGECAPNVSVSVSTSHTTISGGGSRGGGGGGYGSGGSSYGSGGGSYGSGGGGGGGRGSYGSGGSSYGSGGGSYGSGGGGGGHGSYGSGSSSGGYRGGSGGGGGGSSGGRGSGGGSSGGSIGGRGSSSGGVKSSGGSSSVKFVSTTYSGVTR
# UniProt P38646, residues 47-679: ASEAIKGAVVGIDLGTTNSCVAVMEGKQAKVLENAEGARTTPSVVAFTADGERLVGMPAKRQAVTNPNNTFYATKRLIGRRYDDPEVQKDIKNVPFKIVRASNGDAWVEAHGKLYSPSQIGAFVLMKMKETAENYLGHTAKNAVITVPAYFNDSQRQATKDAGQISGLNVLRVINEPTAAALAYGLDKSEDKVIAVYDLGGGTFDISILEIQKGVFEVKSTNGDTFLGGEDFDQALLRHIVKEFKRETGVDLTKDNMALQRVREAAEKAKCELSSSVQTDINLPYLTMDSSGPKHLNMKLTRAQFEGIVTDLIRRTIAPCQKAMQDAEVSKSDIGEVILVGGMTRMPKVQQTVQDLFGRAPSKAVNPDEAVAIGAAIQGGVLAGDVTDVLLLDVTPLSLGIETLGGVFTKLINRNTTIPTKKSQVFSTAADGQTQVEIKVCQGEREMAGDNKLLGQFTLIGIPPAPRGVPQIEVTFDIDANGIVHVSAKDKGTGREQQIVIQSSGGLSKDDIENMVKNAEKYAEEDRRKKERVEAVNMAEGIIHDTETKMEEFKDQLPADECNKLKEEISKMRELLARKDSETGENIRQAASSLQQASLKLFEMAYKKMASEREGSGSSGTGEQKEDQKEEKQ
# UniProt Q00610: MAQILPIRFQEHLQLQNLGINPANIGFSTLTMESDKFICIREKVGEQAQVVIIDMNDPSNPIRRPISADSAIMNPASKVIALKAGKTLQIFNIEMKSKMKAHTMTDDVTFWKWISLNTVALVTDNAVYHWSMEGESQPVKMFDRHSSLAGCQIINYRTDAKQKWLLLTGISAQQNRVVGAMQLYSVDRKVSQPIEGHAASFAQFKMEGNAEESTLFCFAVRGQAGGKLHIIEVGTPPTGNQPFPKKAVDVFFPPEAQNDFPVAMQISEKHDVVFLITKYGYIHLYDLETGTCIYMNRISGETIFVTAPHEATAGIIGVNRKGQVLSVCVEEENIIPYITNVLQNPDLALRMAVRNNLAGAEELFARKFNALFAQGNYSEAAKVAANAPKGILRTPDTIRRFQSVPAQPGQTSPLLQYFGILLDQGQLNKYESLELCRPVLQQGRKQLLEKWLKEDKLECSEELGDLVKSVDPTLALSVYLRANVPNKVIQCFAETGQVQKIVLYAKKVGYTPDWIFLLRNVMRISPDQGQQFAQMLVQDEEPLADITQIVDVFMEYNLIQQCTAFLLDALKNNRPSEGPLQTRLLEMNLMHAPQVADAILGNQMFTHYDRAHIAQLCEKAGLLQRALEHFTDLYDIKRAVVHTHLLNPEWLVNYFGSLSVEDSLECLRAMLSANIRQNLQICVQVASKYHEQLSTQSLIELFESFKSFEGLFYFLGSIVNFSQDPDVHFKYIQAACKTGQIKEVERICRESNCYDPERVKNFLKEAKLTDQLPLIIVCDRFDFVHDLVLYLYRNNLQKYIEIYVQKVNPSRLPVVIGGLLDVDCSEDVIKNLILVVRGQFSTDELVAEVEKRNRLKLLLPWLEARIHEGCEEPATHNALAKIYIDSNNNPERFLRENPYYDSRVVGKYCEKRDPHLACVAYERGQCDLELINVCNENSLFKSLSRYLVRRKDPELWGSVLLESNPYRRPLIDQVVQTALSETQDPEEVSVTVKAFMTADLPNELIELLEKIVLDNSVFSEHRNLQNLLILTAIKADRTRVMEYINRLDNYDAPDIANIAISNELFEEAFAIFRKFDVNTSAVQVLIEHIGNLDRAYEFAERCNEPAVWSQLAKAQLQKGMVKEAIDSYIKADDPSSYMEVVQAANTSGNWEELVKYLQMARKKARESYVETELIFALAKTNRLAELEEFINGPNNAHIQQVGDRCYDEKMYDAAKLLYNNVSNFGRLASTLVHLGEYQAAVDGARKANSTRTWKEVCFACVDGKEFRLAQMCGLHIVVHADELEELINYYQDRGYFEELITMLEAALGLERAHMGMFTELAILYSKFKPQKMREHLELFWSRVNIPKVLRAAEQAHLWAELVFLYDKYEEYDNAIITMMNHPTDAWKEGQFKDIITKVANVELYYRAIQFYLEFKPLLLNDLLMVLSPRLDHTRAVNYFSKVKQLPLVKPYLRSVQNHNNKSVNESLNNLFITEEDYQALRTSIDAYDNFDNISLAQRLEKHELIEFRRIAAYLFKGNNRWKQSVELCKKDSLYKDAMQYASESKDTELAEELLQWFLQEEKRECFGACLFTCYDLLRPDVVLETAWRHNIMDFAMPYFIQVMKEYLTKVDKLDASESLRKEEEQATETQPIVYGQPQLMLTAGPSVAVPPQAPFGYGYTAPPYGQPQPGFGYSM
# UniProt P46940: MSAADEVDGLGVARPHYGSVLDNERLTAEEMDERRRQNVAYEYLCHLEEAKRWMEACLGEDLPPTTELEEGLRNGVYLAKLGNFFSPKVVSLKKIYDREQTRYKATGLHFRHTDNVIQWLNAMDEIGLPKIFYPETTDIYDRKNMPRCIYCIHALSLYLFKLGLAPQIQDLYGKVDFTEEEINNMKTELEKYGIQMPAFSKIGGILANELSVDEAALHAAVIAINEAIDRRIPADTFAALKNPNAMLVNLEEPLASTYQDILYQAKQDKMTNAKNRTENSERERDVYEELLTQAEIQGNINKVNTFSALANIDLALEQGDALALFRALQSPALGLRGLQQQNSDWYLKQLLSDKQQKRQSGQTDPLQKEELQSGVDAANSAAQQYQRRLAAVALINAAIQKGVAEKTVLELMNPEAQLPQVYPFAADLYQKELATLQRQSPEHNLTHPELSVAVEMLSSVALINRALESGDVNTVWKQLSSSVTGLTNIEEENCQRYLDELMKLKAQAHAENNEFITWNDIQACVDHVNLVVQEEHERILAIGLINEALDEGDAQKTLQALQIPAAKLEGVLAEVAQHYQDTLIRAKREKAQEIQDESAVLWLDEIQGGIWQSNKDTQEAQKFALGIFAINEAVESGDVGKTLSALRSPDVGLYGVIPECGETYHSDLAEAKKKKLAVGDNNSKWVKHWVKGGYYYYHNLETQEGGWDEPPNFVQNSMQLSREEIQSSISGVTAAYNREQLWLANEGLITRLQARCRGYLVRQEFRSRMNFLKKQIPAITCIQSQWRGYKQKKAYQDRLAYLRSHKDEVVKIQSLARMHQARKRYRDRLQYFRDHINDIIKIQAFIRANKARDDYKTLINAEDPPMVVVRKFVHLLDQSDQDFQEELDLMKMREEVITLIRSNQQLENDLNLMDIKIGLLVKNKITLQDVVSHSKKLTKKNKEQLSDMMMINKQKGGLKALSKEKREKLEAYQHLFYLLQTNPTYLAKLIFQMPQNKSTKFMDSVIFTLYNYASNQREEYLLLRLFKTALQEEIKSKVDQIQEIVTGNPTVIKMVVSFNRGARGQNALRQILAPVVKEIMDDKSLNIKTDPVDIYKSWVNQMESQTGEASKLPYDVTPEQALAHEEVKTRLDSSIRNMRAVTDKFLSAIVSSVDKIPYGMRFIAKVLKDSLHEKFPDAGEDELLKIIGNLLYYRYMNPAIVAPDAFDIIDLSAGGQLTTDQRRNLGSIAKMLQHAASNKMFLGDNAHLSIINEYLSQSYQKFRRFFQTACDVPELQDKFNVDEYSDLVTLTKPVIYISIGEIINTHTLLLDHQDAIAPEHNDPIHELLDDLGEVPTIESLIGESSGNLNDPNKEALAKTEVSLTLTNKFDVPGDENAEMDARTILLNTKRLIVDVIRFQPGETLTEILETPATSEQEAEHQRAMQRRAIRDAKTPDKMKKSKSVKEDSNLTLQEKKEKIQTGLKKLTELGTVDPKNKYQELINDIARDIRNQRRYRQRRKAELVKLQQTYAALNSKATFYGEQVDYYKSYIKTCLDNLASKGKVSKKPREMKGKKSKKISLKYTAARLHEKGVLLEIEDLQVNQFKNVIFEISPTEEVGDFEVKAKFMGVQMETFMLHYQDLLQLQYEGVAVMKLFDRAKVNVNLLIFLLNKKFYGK
# UniProt P53618: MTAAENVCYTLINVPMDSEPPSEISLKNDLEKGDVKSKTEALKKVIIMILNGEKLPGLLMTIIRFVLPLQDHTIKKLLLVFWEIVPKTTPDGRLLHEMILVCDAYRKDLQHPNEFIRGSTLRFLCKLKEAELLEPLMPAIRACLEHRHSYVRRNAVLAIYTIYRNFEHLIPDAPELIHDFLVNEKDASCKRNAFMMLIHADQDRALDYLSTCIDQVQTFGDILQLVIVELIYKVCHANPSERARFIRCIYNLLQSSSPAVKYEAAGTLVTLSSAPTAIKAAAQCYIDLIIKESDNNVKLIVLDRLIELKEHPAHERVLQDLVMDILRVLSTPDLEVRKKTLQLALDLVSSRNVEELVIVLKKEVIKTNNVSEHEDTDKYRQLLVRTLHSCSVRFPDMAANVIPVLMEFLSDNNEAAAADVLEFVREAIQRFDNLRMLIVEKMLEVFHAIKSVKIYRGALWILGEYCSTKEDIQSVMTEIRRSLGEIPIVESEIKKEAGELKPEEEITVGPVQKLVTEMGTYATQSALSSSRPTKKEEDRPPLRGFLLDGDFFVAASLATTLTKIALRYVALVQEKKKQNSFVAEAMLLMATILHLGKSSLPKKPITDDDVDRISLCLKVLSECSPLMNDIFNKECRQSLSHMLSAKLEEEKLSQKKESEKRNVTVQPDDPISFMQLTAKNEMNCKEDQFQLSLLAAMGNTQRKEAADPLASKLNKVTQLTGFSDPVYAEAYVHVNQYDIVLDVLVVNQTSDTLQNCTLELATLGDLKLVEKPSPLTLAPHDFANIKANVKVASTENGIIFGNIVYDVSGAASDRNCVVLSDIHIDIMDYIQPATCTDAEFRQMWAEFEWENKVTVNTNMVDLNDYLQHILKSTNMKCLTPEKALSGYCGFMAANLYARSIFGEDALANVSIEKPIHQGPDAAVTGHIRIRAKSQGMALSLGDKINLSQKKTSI
# UniProt P10809, residues 27-573: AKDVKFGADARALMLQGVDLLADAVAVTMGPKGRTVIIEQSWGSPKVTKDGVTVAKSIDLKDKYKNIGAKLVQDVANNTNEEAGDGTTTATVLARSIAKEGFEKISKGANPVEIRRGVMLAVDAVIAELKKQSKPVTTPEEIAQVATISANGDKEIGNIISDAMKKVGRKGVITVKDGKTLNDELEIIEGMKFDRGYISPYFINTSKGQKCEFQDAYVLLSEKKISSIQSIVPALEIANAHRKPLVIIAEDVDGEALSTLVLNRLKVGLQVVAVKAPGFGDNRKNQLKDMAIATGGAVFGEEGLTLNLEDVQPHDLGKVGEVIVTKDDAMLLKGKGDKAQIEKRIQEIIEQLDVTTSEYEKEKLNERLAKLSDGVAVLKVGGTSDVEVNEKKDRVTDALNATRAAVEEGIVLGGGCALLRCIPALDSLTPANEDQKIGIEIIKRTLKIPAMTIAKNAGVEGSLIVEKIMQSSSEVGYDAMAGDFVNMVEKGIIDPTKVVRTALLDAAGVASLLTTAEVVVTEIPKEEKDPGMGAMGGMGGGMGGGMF
# UniProt P61289: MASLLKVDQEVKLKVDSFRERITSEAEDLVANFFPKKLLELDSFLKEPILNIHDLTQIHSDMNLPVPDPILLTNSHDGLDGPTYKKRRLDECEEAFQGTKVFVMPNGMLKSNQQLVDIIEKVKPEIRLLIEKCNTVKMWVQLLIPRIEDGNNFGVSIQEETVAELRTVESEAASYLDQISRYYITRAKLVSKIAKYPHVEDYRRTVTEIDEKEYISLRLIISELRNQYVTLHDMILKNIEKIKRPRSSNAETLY
# Results are given in words; binding and its absence hold for the method and conditions named. Binding seen in cells or lysates may run through a third protein. A yes stands for co-enrichment or nearness to the bait. Other partners may have been found.
# Target: RKIP-3xFLAG fusion protein (UniProt P30086)
# Assay: affinity purification with mass spectrometry; RKIP-3xFLAG from transfected SGC7901 cells held on anti-FLAG M2 magnetic beads (overnight, 4°C); 1D SDS-PAGE, in-gel trypsin digestion, ESI-Q-TOF MS/MS; 3xFLAG (blank carrier) and blank groups as controls; repeated three times
row,Substance,binding
1,Heat shock protein HSP 90-beta (from UniProt P08238 1-724),binds
2,Alpha-enolase (from UniProt P06733 1-434),binds
3,"Keratin, type II cytoskeletal 1 (from UniProt P04264 1-644)",binds
4,Voltage-dependent anion-selective channel protein 1 (from UniProt P21796 1-283),binds
5,Annexin A5 (from UniProt P08758 1-320),binds
6,"Transcription intermediary factor 1-beta, isoform 1 (from UniProt Q13263 1-835)",binds
7,"Stress-70 protein, mitochondrial (from UniProt P38646 47-679)",binds
8,"Keratin, type I cytoskeletal 17 (from UniProt Q04695 1-432)",binds
9,Tubulin beta-2C chain (from UniProt P68371 1-445),binds
10,"Clathrin heavy chain 1, isoform 1 (from UniProt Q00610 1-1675)",binds
11,"Myosin-9, isoform 1 (from UniProt P35579 1-1960)",binds
12,Transitional endoplasmic reticulum ATPase (from UniProt P55072 1-806),binds
13,14-3-3 protein epsilon (from UniProt P62258 1-255),binds
14,Ras GTPase-activating-like protein IQGAP1 (from UniProt P46940 1-1657),binds
15,Puromycin-sensitive aminopeptidase (from UniProt P55786 1-919),binds
16,Glyceraldehyde-3-phosphate dehydrogenase (from UniProt P04406 1-335),binds
17,"Alkaline phosphatase, placental-like (from UniProt P10696 20-503)",binds

row,Substance,binding
1,Glutathione S-transferase P (from UniProt P09211 1-210),binds
2,Importin subunit beta-1 (from UniProt Q14974 1-876),binds
3,Coatomer subunit beta (from UniProt P53618 1-953),binds
4,"60 kDa heat shock protein, mitochondrial (from UniProt P10809 27-573)",binds
5,"Pyruvate kinase isozymes M1/M2, isoform M2 (from UniProt P14618 1-531)",binds
6,"Filamin-B, isoform 1 (from UniProt O75369 1-2602)",binds
7,"Vinculin, isoform 1 (from UniProt P18206-2)",binds
8,Endoplasmin (from UniProt P14625 22-803),binds
9,"Heat shock cognate 71 kDa protein, isoform 1 (from UniProt P11142 1-646)",binds
10,Vimentin (from UniProt P08670 1-466),binds
11,Eukaryotic initiation factor 4A-I (from UniProt P60842 1-406),binds
12,Tubulin beta chain (from UniProt P07437 1-444),binds
13,Elongation factor 1-gamma (from UniProt P26641 1-437),binds
14,ATP-citrate synthase (from UniProt P53396 1-1101),binds
15,"Proteasome activator complex subunit 3, isoform 1 (from UniProt P61289 1-254)",binds
16,Elongation factor 1-alpha 1 (from UniProt P68104 1-462),binds
